Experimental data published in article PMC8857481.

Target: FLAG-METTL5 (human)
Experiment: affinity purification with mass spectrometry; FLAG-M2 magnetic beads in lysate of FreeStyle 293-F cells transfected with pCS2-FLAG-METTL5, 30 min at 4 °C; washes with lysis buffer (50 mM NaCl, 0.5% NP-40) and high salt buffer (500 mM KCl); silver-stained gel bands excised and identified by nano LC/MS/MS

binding: binds
B1: TRMT112 (protein, UniProt Q9UI30 1-125)
chain: MKLLTHNLLSSHVRGVGSRGFPLRLQATEVRICPVEFNPNFVARMIPKVEWSAFLEAADNLRLIQVPKGPVEGYEENEEFLRTMHHLLLEVEVIEGTLQCPESGRMFPISRGIPNMLLSEEETES

No constants are given. Whether binding was seen depends on the method and setting. Binding seen in cells or lysates may run through a third protein. A yes stands for co-enrichment or nearness to the bait. Other partners may have been found.
